In article PMC5122375:
Results are given in words; binding and its absence hold for the method and conditions named. For some assays here: Binding seen in cells or lysates may run through a third protein. Some results given as binding are weak or reduced against the parent protein; the word gives no strength.

By UniProt entry, the sequences of proteins in these tests, tags left out. Where a name states a change or a piece, a line headed by the entry shows the natural chain unless it says otherwise.
UniProt P14618: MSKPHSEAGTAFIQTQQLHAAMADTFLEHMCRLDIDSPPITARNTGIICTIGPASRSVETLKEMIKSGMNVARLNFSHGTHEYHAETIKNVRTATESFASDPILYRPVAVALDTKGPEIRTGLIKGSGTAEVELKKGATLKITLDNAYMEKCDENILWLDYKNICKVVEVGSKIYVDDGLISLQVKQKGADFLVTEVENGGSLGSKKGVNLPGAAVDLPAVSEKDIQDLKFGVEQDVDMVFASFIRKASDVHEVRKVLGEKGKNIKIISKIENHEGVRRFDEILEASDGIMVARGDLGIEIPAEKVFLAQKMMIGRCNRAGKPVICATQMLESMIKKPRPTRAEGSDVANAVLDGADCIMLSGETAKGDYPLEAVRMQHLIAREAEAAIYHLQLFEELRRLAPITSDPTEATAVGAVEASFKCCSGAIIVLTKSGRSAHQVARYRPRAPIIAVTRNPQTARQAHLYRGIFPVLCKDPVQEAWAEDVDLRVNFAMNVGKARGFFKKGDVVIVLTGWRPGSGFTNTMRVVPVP

Assays:
H103 scFv Ab (human) = assay: pull-down; hypoxic HCCLM3 lysate precipitated with H103 scFv on Ni- or protein L agarose (agarose without scFv as control); blotted with commercial anti-PKM2 McAb (C-11); only the target purified
human PKM2-flag (human) = human PKM2-flag (human) (UniProt P14618); assay: far-Western, overlay or dot blot; lysates of HEK293 cells transfected with PKM2-flag/pCMV-2B or pCMV-2B resolved by SDS-PAGE, blotted and probed with H103 scFv Ab (14.5 ug/mL); only the binder purified

binding (H103 scFv Ab (human))	binding (human PKM2-flag (human))	Molecule
binds	–	M2 splice isoform of pyruvate kinase (PKM2) (from UniProt P14618-1 1-531)
–	binds	H103 scFv Ab (scFv) scFv: GPAGHGPGAAAESGPGLVRPSGTLSLICAVSGDSISSSIWWSWVRQSPGKGLEWIGYIYHNGNTYYNPSLESRVTISVDTSENQFSLKLSSVTAADTAVYYCARGYDSSGYYWTDDRYYFDYWGQGTLVTVSSGGGGSGGGGSGGGGSNFMLTQPHSVSESPGKTVTISCTGSSGSIASNYVQWYQQRPGSAPTTVIYEDNQRPPGVPDRFSGSIDSSSNSASLTISALETEDEADYYCQSYDSRNIDVVFGGGTKVTVLGAAA
